Some of the results follow. Further columns of the screen follow, without active or inactive calls. Most of these compounds were active or inconclusive in the main read-out, so they are no random draw. Potencies come from curve fits of mixed quality, noted in brackets.

A short description of this assay: qHTS Assay for Lipid Storage Modulators in Drosophila S3 Cells.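 On cell number change: cells counted by Cell Tracker Red CMTPX staining in the red channel.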 The settings on record: BODIPY lipid droplet fluorescence, 18-24 h; for cell number change: measured here: cell count max response, cells fed with added oleic acid. Put shortly:
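Drosophila S3 cells got compounds at several concentrations plus oleic acid (400 uM solution). Laser-scanning cytometry with 488 nm excitation read lipid droplets at 500-530 nm and cells at 575-640 nm. Percent activity was relative to 20 uM Triacsin C.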

Where [1] appears, read: measured here: lipid fluorescence (Fed channel) AC50, cells fed with added oleic acid.
The mark [2] stands for this setting: measured here: cell number channel AC50, cells fed with added oleic acid.

Regarding `CCc1ccc(-c2nc(SCC(=O)NC3CC3)n[nH]2)cc1`, under setting [1], the concentration at half-maximal activity (AC50) was 5.17 µM [falling, single point].
Regarding `CCCCC(=O)Nc1c(O)c2ccccc2[nH]c1=O`, the cell number change amounted to 33%. Also, under setting [2], the AC50 was 10.3 µM [rising, single point].
Consider `Nc1ccc(C(CC(=O)O)n2cccc2)cc1` (stereo not drawn), for which the cell number change was found to be 24.1%. Further, the AC50 under setting [2] is 0.146 µM [rising, full curve, poor fit]. In addition, the AC50 under setting [1] is 0.00651 µM [rising, full curve, poor fit].
Consider `Cc1cccc(C(=O)NCC(=O)OCC(=O)c2ccc(Cl)s2)c1`, for which the cell number change is -13.6%.
The same measure, in the same setting: in the case of `O=C(Cn1cnc2ccccc2c1=O)N(Cc1ccco1)c1ccc(O)cc1` it was 3.04%; in that of `O=C(NCCCN1CCCC1=O)C(=O)NCC1OCCN1S(=O)(=O)c1ccc(Br)cc1` (stereo not drawn), -11.4%.
Regarding `Cc1c(C(=O)N(C)CCC#N)oc2ccc(S(=O)(=O)N3CC(C)CC(C)C3)cc12` (stereo not drawn), the cell number change was 23.8%. The concentration at half-maximal activity (AC50) under setting [1] was 6.51 µM [falling, single point].
Turning to `Cc1cnc(NC(=O)c2sc(Nc3ccccc3)nc2N)o1`, the cell number change is -60.5%. In addition, the AC50 under setting [2] was 25.9 µM [falling, partial curve, poor fit]. For the same compound, under setting [1], the AC50 was 23.1 µM [falling, partial curve, poor fit].
On to `CN(C)CCOC(=O)C(c1ccccc1)C1(O)CCCC1` (stereo not drawn), for which the AC50 under setting [1] was 0.184 µM [falling, full curve, poor fit].
Regarding `COc1ccc(NC(=O)c2sc3nc(Cc4ccccc4)cc(C(F)(F)F)c3c2N)cc1OC`, the cell number change was determined as 4.66%. Further, the AC50 under setting [1] was 29.1 µM [falling, partial curve, poor fit].
`Nc1nonc1-n1nnc(C(=O)N/N=C/c2ccc(OCc3cccc(Cl)c3)cc2)c1CN1CCCCC1`: the cell number change was determined as 72.1%. Besides, under setting [2], the AC50 is 29.1 µM [rising, single point].
For the compound `CC1CC1c1ccc(/C=C(\C#N)C(=O)Nc2ccccc2Cl)o1` (stereo not drawn), the cell number change amounted to 12.1%. Besides, the AC50 under setting [1] is 1.3 µM [falling, single point].
Regarding `O=C(C1CCCO1)N1CCN(C(=S)NC2CC2)CC1` (stereo not drawn), the cell number change was -24.4%.
With `COc1ccccc1N1CCN(S(=O)(=O)c2ccc(F)cc2)CC1`, the cell number change was -9.55%.
Take `CC(CC(=O)N1CCN(c2ccc(C(F)(F)F)cn2)CC1)n1ccnc1` (stereo not drawn): the cell number change stood at 14.7%. Besides, the AC50 under setting [2] was 2.91 µM [rising, partial curve, poor fit]. Moreover, the AC50 under setting [1] was 3.26 µM [rising, full curve, poor fit].
In the case of `CC(=O)Nc1ccc2nc(CN3CCC(CO)(CCc4ccccc4)CC3)ccc2c1`, the cell number change is -9.03%. Under setting [1], the AC50 was 0.0082 µM [falling, full curve, poor fit].
Consider `CCOC(=O)N1CCN(S(=O)(=O)c2ccc(C(=O)Nc3nc4ccccc4s3)cc2)CC1`, for which the cell number change worked out at 159%. The concentration at half-maximal activity (AC50) under setting [2] was 29.1 µM [rising, single point].
In the case of `CCOc1ccc(NC(=S)Nc2ccc(C)c([N+](=O)[O-])c2)cc1`, the cell number change was -1.86%. For the same compound, the AC50 under setting [1] was 6.51 µM [rising, partial curve, poor fit].
For `Cc1cc(C)c2nc(N3CCCC(C(=O)N4CCC(C(N)=O)CC4)C3)sc2c1` (stereo not drawn), the AC50 under setting [1] was 0.58 µM [rising, single point].
Consider `CC1=CC(=O)C2=C(C)CC[C@@H]3[C@H](OC(=O)[C@H]3C)[C@@H]12`, for which the cell number change came to 0.825%. In addition, under setting [2], the AC50 is 0.00517 µM [falling, full curve, poor fit]. For the same compound, the AC50 under setting [1] is 3.26 µM [falling, single point].
Take `CC1CC(C)CN(c2ncc3c(n2)CC(c2ccc(Cl)cc2)CC3=O)C1` (stereo not drawn): the AC50 is, setting by setting: under setting [2], 1.84 µM [falling, partial curve]; under setting [1], 4.11 µM [falling, full curve, poor fit].
For the compound `CN1CCN(CC(=O)O)CC1`, the cell number change is 5.93%.
Take `O=C(CSc1ncccc1C(=O)O)c1cccc(C(F)(F)F)c1`: the half-maximal activity concentration (AC50) under setting [1] is 5.8 µM [falling, single point].
For the compound `CN(C)c1ccc(/C=C(/C#N)C(=O)NCc2ccccc2)o1`, the AC50 under setting [1] is 20.6 µM [falling, single point].
Regarding `N#C/C(=C/c1ccccc1)c1nn(CCO)c(N)c1C#N`, the cell number change was 115%. Moreover, under setting [2], the concentration at half-maximal activity (AC50) was 1.84 µM [rising, full curve]. Further, the AC50 under setting [1] was 0.651 µM [rising, single point].
Regarding `CC(=O)NC1=NN(C(C)=O)C(c2sccc2C)S1` (stereo not drawn), the cell number change stood at 15.3%.
As for `CCN1CCN(c2cc(C)c3cc(NC(=O)CCC(=O)N4CCN(c5ccccc5)CC4)ccc3n2)CC1`, the cell number change stood at 22.2%. Under setting [1], the AC50 was 20.6 µM [rising, partial curve].
In the case of `COc1ccccc1CNC(=O)C1CCCN(S(=O)(=O)c2ccc3c(c2)C(C)(C)C(=O)N3C)C1` (stereo not drawn), the cell number change was 5.09%. Under setting [2], the AC50 was 0.259 µM [rising, full curve, poor fit]. Further, the AC50 under setting [1] was 0.651 µM [rising, partial curve, poor fit].
Consider `CC(=O)c1cccc(NC(=O)c2c(-c3c(F)cccc3Cl)noc2C)c1`, for which the cell number change is -4.35%.
With `COc1ccc(S(=O)(=O)N2CCC(C(=O)Nc3cccc(C(C)=O)c3)CC2)cc1C`, the cell number change is -4.74%. Moreover, the AC50 under setting [1] is 8.2 µM [rising, partial curve].
For the compound `Cc1cccc(-c2nc3ccc(C(=O)NCCN4CCN(C)CC4)cc3nc2-c2cccc(C)c2)c1`, the cell number change is -12.5%. Besides, the AC50 under setting [1] was 29.1 µM [falling, single point].
In the case of `CC1=CC(C)C(C(=O)O)C(C(=O)Nc2cccnc2)C1` (stereo not drawn), the cell number change is -15.1%. In addition, the half-maximal activity concentration (AC50) under setting [1] is 29.1 µM [rising, single point].
Regarding `O=C1C2C3C=CC(C3=C3CCCCC3)C2C(=O)N1c1ccccc1` (stereo not drawn), the cell number change was found to be 77.5%. Besides, the AC50 under setting [2] was 29.1 µM [rising, single point].
As to `COc1ccccc1C(=O)Nc1cccc(C(=O)N2CCOCC2)c1`, the cell number change is -22.6%. Also, the AC50 under setting [1] is 0.517 µM [falling, full curve].
Turning to `CNc1ccc(OC)cc1-n1cnc(-c2ccc([N+](=O)[O-])cc2)c1`, the cell number change is -7.42%.
`Cc1csc(=O)n1CCC(=O)OCC(=O)N(CC(C)C)c1c(N)n(Cc2ccccc2)c(=O)[nH]c1=O`: the cell number change was -48%. Further, the half-maximal activity concentration (AC50) under setting [2] was 16.4 µM [falling, partial curve, poor fit].
As to `O=C(COC(=O)c1cccs1)NCC1CCCCC1`, the cell number change is -18.4%. Moreover, the AC50 under setting [1] is 6.51 µM [rising, single point].
With `CC(Sc1nc2c(c(=O)n(C)c(=O)n2C)n1Cc1cc2c(cc1Cl)OCO2)C(=O)O` (stereo not drawn), the cell number change came to 4.67%. The AC50 under setting [1] is 6.51 µM [rising, single point].
In the case of `Cc1c(C(=O)OCC(=O)N2CCCC2)cccc1[N+](=O)[O-]`, the cell number change was found to be 31%.
In the case of `COC(=O)c1cc(S(=O)(=O)NCCc2sccc2C)c[nH]1`, the AC50 under setting [1] is 23.1 µM [falling, single point].
With `O=C(Cc1cccc(C(F)(F)F)c1)NCc1ccc(Cl)cc1`, the cell number change is -4.77%. Further, under setting [2], the AC50 is 2.06 µM [rising, single point].
For the compound `CC(Sc1ncnc2sc(-c3ccccc3)cc12)C(=O)NCC1CCCO1` (stereo not drawn), the cell number change is 18.9%. Also, the AC50 under setting [1] is 29.1 µM [rising, single point].
For `CCN(CC)S(=O)(=O)c1ccc(C(C)NC(=O)C2CCCN2C(=O)c2cccs2)cc1` (stereo not drawn), the cell number change was -55.6%. Under setting [2], the AC50 was 3.66 µM [falling, full curve]. Moreover, under setting [1], the AC50 is 4.11 µM [falling, full curve].
As to `COc1ccc(CNC(=O)c2cc3c(=O)[nH]c4ccccc4c3n2C)cc1`, the cell number change is 29.2%. For the same compound, under setting [2], the AC50 is 0.0206 µM [rising, full curve, poor fit]. For the same compound, under setting [1], the AC50 is 0.651 µM [rising, partial curve].
With `O=C(Nc1nc(-c2ccc(Cl)s2)cs1)c1cccs1`, the cell number change was -13.2%. In addition, the AC50 under setting [2] was 6.51 µM [rising, single point].
Turning to `COc1ccc(OC)c(-c2cc(C(=O)Nc3c(C)nn(Cc4ccc(Cl)cc4)c3C)no2)c1`, the cell number change came to 0.812%. Further, under setting [1], the AC50 is 0.164 µM [rising, full curve, poor fit].
For `O=C(O)c1cccc(S(=O)(=O)Nc2ccc3c(c2)OCO3)c1`, the cell number change came to 40.1%. The AC50 under setting [2] was 1.3 µM [rising, full curve].
Take `Cc1ccccc1NC(=O)C1C2CC/C=C\CCC21` (stereo not drawn): the cell number change was 11.6%. In addition, under setting [1], the AC50 is 16.4 µM [rising, partial curve].
For the compound `CCn1c(C)c(C2=CCN(S(=O)(=O)c3ccc(C)cc3)CC2)c2ccccc21`, the cell number change is -3.66%. Also, the AC50 under setting [1] was 6.51 µM [falling, full curve, poor fit].
With `O=C(O)c1ccc2c(c1)C(=O)N(c1ccc(Cl)cn1)C2=O`, the cell number change is -17.2%. For the same compound, the AC50 under setting [1] is 0.13 µM [falling, full curve, poor fit].
Regarding `O=C1c2cnc3nc(SCc4cccc(Cl)c4)nn3c2CC2c3ccccc3CCN12` (stereo not drawn), the cell number change turned out to be 20.6%. Also, the AC50 under setting [1] was 0.00461 µM [falling, full curve, poor fit].
On to `Cc1ccccc1-n1sc2cc(F)ccc2c1=O`, for which the cell number change is -77.4%. Also, the AC50 under setting [2] is 29.1 µM [falling, single point]. In addition, the AC50 under setting [1] is 20.6 µM [falling, partial curve].
`O=C(Nc1ccc(F)cc1F)c1noc2c1CCC2`: the cell number change was 3.51%.
As to `Cc1ccccc1-n1nnnc1SCC(=O)NCC1(N2CCOCC2)CCCCC1`, the cell number change was -3.3%. Besides, the AC50 under setting [1] was 0.00517 µM [falling, full curve, poor fit].
For `COc1ccc(C(=O)COc2ccccc2N2C(=O)C3C4C=CC(C4)C3C2=O)cc1` (stereo not drawn), the cell number change was 32.6%. Besides, the AC50 under setting [2] is 0.00461 µM [rising, full curve, poor fit]. Moreover, under setting [1], the AC50 was 8.2 µM [rising, partial curve].
As to `CC1CCCN(c2ccc(C(=O)OCC(=O)N3c4ccccc4Sc4ccccc43)cc2[N+](=O)[O-])C1` (stereo not drawn), the cell number change is 125%. Further, the AC50 under setting [2] was 16.4 µM [rising, partial curve, poor fit]. The AC50 under setting [1] was 8.2 µM [falling, partial curve].
On to `CCn1cc(C(=O)O)c(=O)c2cc(F)c(N/N=C/c3ccccc3[N+](=O)[O-])cc21`, for which the cell number change was 56.3%. Besides, the AC50 under setting [2] was 29.1 µM [rising, single point]. The half-maximal activity concentration (AC50) under setting [1] was 18.4 µM [rising, single point].
For `Cc1ccc(SCc2nc(N)nc(Nc3ccccc3C)n2)c(C)c1`, the cell number change came to 2.53%. Besides, under setting [1], the AC50 was 29.1 µM [rising, single point].
For `CC(=O)NCCC(=O)NCC1(N(C)Cc2ccccc2)Cc2ccccc2C1`, the cell number change was -0.739%. For the same compound, the AC50 under setting [1] was 0.184 µM [rising, full curve, poor fit].

The record behind these values is PubChem BioAssay AID2685 (National Center for Advancing Translational Sciences (NCATS), 2010).
